Compound in this assay: COc1ccc(Cn2ccc3ccc(C(=O)NO)cc32)cc1
In words: dose-dependent thermal stabilisation call (2D-TPP, DLPTP, 10% FDR) (binary (1 = stabilised)); higher = stabilised by the compound. To be noted: system: HL-60 intact cells; concentration range 0.04-10 µM.

The chains behind the UniProt entries cited, without tags or fusion partners. Where a name states a change or a piece, a line headed by the entry shows the natural chain unless it says otherwise.
UniProt Q96AQ8: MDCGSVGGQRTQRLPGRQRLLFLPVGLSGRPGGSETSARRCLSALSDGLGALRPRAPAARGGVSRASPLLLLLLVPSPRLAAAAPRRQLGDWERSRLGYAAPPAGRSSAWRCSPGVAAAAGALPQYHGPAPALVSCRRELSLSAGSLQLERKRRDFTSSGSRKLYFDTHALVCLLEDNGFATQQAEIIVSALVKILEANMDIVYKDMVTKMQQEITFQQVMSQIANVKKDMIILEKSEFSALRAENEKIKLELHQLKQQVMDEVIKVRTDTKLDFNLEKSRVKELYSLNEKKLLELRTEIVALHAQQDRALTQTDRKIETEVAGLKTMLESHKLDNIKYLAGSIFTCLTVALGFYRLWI
UniProt Q9NZZ3: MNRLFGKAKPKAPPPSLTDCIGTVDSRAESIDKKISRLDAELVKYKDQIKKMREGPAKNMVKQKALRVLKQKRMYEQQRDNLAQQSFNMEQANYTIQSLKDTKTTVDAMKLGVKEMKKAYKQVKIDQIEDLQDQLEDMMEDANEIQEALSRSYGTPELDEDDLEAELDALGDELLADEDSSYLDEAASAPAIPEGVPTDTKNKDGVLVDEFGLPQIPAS
UniProt Q9Y2S6, whole entry: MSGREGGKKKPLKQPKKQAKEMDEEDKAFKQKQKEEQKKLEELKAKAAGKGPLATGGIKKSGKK
UniProt Q9NYJ1, whole entry: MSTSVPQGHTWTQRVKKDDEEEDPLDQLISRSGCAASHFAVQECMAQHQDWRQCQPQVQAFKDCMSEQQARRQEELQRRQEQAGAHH
UniProt P21127: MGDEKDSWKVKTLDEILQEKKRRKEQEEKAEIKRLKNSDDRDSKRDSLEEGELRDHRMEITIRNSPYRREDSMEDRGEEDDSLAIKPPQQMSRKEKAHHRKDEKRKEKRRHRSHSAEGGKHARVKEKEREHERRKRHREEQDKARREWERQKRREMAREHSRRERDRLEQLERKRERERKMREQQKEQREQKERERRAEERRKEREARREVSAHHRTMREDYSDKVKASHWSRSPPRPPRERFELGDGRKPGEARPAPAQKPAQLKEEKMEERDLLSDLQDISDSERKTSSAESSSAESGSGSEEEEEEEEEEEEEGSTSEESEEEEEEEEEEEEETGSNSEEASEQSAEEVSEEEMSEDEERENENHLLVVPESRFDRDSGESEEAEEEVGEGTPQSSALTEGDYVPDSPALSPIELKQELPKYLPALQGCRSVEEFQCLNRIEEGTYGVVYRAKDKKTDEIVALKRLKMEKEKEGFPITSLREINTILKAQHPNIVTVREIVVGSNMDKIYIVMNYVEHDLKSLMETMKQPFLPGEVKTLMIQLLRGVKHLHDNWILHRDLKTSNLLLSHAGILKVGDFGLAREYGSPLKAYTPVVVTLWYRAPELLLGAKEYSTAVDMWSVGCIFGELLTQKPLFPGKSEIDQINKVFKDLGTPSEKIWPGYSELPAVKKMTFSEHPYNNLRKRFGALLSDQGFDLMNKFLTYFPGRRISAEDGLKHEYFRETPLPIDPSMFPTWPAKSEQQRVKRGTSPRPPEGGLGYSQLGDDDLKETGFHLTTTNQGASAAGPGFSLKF
UniProt Q9UJX2, whole entry: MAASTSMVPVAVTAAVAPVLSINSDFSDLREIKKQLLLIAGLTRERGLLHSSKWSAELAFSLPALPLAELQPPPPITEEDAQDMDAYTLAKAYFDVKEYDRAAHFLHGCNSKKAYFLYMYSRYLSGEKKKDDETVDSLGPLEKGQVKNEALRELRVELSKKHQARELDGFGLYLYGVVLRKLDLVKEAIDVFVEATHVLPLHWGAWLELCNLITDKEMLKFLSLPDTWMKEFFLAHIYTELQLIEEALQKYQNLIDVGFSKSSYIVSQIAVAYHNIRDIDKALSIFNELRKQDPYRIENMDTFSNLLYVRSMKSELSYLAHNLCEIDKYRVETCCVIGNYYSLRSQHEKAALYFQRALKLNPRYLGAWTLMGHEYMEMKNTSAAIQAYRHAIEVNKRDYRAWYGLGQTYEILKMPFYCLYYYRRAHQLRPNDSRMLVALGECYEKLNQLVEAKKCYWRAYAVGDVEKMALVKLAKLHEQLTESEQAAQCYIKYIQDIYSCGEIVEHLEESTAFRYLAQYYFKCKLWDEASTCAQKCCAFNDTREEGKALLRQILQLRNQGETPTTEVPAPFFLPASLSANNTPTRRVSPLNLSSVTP
UniProt P19397: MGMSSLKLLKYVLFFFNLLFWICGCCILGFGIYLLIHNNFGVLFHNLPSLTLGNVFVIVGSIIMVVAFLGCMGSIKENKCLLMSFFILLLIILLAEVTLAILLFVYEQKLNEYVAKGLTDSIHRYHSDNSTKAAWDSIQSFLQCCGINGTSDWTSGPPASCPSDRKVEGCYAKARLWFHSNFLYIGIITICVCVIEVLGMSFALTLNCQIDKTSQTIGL
UniProt O43529: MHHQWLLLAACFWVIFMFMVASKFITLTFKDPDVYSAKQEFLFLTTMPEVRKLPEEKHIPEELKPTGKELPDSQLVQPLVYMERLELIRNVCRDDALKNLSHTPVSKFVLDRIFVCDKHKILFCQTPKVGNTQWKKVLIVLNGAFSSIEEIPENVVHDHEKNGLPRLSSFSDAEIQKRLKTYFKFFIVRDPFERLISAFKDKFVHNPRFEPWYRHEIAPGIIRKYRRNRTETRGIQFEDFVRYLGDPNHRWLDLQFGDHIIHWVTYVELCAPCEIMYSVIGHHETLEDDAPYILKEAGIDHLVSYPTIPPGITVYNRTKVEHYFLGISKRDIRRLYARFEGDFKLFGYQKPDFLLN
UniProt Q9UIV1, whole entry: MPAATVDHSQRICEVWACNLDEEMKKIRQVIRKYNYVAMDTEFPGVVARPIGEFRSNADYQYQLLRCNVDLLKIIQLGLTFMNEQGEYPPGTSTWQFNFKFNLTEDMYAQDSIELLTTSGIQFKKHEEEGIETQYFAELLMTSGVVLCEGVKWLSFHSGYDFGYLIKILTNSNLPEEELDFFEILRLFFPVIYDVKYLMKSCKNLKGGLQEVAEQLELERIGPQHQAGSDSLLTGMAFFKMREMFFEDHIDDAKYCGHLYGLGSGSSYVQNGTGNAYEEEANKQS
UniProt Q96MW1: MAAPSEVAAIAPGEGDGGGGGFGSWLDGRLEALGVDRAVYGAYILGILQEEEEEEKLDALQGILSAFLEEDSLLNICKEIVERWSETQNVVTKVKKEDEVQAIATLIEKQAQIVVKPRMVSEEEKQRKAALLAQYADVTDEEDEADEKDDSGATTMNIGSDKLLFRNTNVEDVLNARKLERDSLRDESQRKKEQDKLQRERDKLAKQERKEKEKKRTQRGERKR
UniProt P06493, whole entry, looked up: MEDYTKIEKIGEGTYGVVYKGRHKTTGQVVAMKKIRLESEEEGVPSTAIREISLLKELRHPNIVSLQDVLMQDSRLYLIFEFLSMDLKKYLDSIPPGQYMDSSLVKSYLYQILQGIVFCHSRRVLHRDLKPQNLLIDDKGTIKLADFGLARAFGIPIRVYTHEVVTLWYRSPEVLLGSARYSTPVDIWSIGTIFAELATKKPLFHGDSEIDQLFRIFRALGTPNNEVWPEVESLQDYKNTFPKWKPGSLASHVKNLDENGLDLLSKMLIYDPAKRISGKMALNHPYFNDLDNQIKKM
UniProt Q96FF9: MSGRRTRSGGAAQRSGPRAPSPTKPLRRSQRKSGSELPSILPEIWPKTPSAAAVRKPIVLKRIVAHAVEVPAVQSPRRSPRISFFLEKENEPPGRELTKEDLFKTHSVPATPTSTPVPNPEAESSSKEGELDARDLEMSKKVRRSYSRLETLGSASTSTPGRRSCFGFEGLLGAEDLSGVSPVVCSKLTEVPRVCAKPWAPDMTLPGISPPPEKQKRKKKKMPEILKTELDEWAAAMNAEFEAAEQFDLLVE
UniProt Q9UKY7: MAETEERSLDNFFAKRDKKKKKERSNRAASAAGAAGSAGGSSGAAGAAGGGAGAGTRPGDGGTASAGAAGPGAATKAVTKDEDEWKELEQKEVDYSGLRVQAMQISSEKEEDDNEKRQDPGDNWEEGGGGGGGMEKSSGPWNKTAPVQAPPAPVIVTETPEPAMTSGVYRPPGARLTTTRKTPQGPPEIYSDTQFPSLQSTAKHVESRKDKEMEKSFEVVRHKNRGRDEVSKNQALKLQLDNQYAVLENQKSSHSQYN
UniProt Q8IZ52: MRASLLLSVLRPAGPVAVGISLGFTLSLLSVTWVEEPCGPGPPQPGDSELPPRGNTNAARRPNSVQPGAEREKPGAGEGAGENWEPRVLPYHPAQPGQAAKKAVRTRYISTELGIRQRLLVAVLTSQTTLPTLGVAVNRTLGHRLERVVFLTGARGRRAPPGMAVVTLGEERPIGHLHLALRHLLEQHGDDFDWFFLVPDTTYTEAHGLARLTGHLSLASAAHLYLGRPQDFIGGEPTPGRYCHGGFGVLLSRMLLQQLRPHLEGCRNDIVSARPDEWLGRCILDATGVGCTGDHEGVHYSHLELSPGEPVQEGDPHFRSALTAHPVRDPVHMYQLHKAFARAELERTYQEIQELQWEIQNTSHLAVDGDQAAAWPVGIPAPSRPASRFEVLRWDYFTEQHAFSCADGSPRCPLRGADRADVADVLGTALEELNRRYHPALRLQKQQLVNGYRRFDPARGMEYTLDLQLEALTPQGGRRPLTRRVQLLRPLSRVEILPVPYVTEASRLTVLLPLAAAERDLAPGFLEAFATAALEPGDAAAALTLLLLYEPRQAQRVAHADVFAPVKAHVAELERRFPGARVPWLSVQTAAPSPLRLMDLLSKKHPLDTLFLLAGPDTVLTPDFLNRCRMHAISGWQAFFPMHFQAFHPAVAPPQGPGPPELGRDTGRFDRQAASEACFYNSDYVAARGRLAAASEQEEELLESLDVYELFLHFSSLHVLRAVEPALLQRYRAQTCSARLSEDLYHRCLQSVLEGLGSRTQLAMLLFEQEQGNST
UniProt Q9NVX0: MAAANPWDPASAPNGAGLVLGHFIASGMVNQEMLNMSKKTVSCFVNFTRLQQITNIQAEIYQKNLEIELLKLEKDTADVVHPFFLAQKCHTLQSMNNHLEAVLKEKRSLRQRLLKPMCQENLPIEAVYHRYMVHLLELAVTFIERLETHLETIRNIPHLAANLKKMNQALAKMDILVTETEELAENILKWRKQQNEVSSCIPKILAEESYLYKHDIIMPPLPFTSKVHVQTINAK
UniProt P30279, whole entry: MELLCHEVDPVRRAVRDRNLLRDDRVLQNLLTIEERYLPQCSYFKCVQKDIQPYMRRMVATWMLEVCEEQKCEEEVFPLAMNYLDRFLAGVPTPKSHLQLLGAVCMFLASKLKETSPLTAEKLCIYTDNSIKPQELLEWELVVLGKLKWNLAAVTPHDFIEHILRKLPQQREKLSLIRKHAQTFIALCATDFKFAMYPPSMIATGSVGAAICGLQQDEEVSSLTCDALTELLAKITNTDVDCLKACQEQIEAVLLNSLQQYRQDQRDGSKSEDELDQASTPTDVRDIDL
UniProt Q9H9A5, whole entry: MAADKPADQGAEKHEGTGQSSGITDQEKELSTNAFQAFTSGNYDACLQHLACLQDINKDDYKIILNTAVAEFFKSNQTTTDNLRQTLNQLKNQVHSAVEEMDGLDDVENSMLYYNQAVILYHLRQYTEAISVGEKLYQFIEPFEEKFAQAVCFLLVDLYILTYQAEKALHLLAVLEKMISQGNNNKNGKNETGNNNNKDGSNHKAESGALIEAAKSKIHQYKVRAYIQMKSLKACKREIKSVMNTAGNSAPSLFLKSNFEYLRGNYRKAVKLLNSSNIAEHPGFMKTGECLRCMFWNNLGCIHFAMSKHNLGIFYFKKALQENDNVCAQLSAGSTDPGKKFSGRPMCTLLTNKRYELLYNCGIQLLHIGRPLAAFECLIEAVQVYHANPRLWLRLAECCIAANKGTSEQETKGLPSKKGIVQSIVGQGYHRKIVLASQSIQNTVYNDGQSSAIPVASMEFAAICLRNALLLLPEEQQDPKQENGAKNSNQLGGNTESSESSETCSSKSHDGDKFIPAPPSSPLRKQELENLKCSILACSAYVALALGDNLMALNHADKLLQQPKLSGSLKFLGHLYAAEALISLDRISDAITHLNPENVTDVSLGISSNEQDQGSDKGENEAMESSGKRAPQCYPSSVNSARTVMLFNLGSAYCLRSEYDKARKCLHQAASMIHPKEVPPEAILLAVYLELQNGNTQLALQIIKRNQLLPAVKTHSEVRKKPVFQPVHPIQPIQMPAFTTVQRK
UniProt P40227, whole entry: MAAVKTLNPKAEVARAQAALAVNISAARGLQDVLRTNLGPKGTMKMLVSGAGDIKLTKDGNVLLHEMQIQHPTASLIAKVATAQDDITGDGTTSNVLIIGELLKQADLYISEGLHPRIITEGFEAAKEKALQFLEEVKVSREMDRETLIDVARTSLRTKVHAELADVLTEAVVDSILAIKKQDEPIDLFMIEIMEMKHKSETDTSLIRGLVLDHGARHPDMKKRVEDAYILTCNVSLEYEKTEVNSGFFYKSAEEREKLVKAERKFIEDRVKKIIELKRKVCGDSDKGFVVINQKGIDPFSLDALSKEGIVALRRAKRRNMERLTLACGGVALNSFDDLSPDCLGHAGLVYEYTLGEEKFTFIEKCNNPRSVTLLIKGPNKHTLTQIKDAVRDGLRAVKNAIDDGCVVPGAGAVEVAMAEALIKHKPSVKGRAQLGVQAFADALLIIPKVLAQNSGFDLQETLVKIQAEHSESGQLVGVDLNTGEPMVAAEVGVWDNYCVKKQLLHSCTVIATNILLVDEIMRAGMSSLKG

The other results are listed elsewhere or left out.

With CCDC90A (UniProt Q96AQ8), the “dose-dependent thermal stabilisation call” value is inactive: 0. On to CDC40 (UniProt O60508), for which the “dose-dependent thermal stabilisation call” value was inactive: 0. As for CCDC88A (UniProt Q3V6T2), the “dose-dependent thermal stabilisation call” value was inactive: 0. As for CHCHD4 (UniProt Q8N4Q1), the figure is active: 1; as for CCDC50 (UniProt Q8IVM0), inactive: 0. On to CHMP5 (UniProt Q9NZZ3), for which the “dose-dependent thermal stabilisation call” value was inactive: 0. In the case of CCDC72 (UniProt Q9Y2S6), the “dose-dependent thermal stabilisation call” value is inactive: 0. In the case of CHCHD8 (UniProt Q9NYJ1), the “dose-dependent thermal stabilisation call” value was inactive: 0. For the target CDC2L1 (UniProt P21127), the “dose-dependent thermal stabilisation call” value is inactive: 0. In the case of CNDP2 (UniProt Q96KP4), the “dose-dependent thermal stabilisation call” value is inactive: 0.

For CECR5 (UniProt Q9BXW7), the “dose-dependent thermal stabilisation call” value was inactive: 0. In the case of CDC23 (UniProt Q9UJX2), the “dose-dependent thermal stabilisation call” value was inactive: 0. Consider CD53 (UniProt P19397), for which the “dose-dependent thermal stabilisation call” value is inactive: 0.

With CHCHD3 (UniProt Q9NX63), the “dose-dependent thermal stabilisation call” value was inactive: 0. Under CDK6 (UniProt Q00534) stands inactive: 0; under CINP (UniProt Q9BW66), inactive: 0.

With CHST10 (UniProt O43529), the “dose-dependent thermal stabilisation call” value is inactive: 0.

For the target CD82 (UniProt P27701), the “dose-dependent thermal stabilisation call” value was inactive: 0. For CCDC132 (UniProt Q96JG6), the “dose-dependent thermal stabilisation call” value was inactive: 0. In the case of CNOT7 (UniProt Q9UIV1), the “dose-dependent thermal stabilisation call” value is inactive: 0.

Turning to CCDC43 (UniProt Q96MW1), the “dose-dependent thermal stabilisation call” value is inactive: 0.

On to CDC2 (UniProt P06493), for which the “dose-dependent thermal stabilisation call” value was inactive: 0.

Regarding CDCA5 (UniProt Q96FF9), the “dose-dependent thermal stabilisation call” value is inactive: 0. Under CDV3 (UniProt Q9UKY7) stands inactive: 0; under CD3EAP (UniProt O15446), inactive: 0. Under CCDC117 (UniProt Q8IWD4) stands inactive: 0; under CHPF (UniProt Q8IZ52), inactive: 0. Regarding CLEC16A (UniProt Q2KHT3), the “dose-dependent thermal stabilisation call” value was inactive: 0.

Regarding CEP27 (UniProt Q9NVX0), the “dose-dependent thermal stabilisation call” value is inactive: 0. Take CCS (UniProt O14618): the “dose-dependent thermal stabilisation call” value is inactive: 0. In the case of CCND2 (UniProt P30279), the “dose-dependent thermal stabilisation call” value is inactive: 0.

For CENPF (UniProt P49454), the “dose-dependent thermal stabilisation call” value is inactive: 0. On to CNOT10 (UniProt Q9H9A5), for which the “dose-dependent thermal stabilisation call” value is inactive: 0.

As for CCDC109A (UniProt Q8NE86), the “dose-dependent thermal stabilisation call” value was inactive: 0.

For the target CCT6A (UniProt P40227), the “dose-dependent thermal stabilisation call” value is inactive: 0. Under CLPP (UniProt Q16740) stands active: 1.

In the case of CHAF1B (UniProt Q13112), the “dose-dependent thermal stabilisation call” value was inactive: 0. As for COG5 (UniProt Q9UP83), the “dose-dependent thermal stabilisation call” value was inactive: 0.

Source of the values: the supplement of paper PMC7666118.
